Results are given in words; binding and its absence hold for the method and conditions named. Some results given as binding are weak or reduced against the parent protein; the word gives no strength. Tags and fused reporters may be left off the sequences shown.
Key:
[1] = biological target: T1, His-tagged mArfN37 (mouse); test: SPR, His-mArfN37 captured by anti-His antibody
T1 construct: Captured on the SPR chip through a covalently attached Tetra-His antibody; also called His-mArfN37; His-tagged mArf37; not shown: thrombin-cleavable poly-His tag
T1 chain: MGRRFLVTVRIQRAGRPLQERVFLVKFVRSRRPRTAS

[2] = biological target: T2, mArfN37 (N-terminal fragment of mouse p19Arf, residues 1-37), His tag cleaved (mouse); test: CD-based binding assay
T2 sequence: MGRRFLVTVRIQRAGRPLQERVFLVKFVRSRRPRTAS

[3] = biological target: T1, His-tagged mArfN37; test: SPR (Biacore), His-tagged mArfN37 captured by anti-His antibody, Hdm2 peptide as analyte, reference cell subtracted
Description: Surface Plasmon Resonance. Binding studies were performed using a Biacore 3000 surface plasmon resonance (SPR) instrument (Biacore, Inc.). A Tetra-His™ Antibody (Qiagen, Inc.; Cat. #34670) was covalently attached to a carboxymethylated gold surface (C-1 chip; Biacore, Inc.). The carboxymethyl groups on the surface were activated with N-ethyl-N-(3-dimethylaminopropyl) carbodiimide (EDC) and N-hydroxysuccinimide (NHS) and the antibody was attached at pH 7.4 in 20 mM sodium phosphate buffer, 150 mM NaCl (PBS). Reactive sites remaining on the surface were blocked by reaction with ethanolamine. The His-tagged ligand was attached to the antibody by injecting a […] solution of the ligand in 10 mM HEPES, 150 mM NaCl, pH 7.4 (HBS-N buffer, Biacore) at a flow rate of 10 μL/Min through the flow cell. A reference cell was prepared similarly except that no His-tagged ligand was added. Binding was measured by flowing the non-His-tagged analyte through the reference and ligand-containing flow cells in sequence. Prior to injection of ligands, the chip surfaces were equilibrated in HBS-N buffer. Changes in the SPR response due to solvent differences and the injection process were monitored by injection of HBS-N buffer alone. Regeneration of the chip surface to remove bound analyte and ligand was accomplished by two 100 μL injections of 10 mM glycine, pH 2.0 through both flow cells. […]

binding [1]: binds | binding [2]: binds | binding [3]: binds
Binder: VYQVTVYQAGESDTD (peptide amide; N-terminal acetylation (general synthesis method)) [Hdm2 peptide of the H2 segment (residues 275-289 of SEQ ID NO:8)]

Source: US20040248198A1 (ST JUDE CHILDREN S RESEARCH HOSPITAL, published 2004)
